Measurements taken from patent US20210300992A1.
No constants are given. Whether binding was seen depends on the method and setting. Some results given as binding are weak or reduced against the parent protein; the word gives no strength. For part of these data: Tags and fused reporters may be left off the sequences shown.

The chains behind the UniProt entries cited, without tags or fusion partners. Residues count along the entry.
UniProt P15018, residues 23-202: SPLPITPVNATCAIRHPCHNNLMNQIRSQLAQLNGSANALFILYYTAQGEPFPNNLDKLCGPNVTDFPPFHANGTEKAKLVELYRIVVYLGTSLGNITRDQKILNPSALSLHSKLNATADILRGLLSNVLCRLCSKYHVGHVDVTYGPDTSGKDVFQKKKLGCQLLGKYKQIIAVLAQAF

Columns and labels:
[1] = target: human leukemia inhibitory factor (LIF), soluble (human) (UniProt P15018); assay: KinExA with soluble human LIF; inhibitor titrated
[2] = target: LIF displayed on the surface of yeast (UniProt P15018); assay: yeast-displayed LIF, anti-Fc detection by flow cytometry
human LIF-His (human) [3] = target: human LIF-His (human) (UniProt P15018); assay: simultaneous binding assay: LIF held by yeast-displayed gp130 or LIFR, anti-Fc detection
human LIF-His (human) [4] = target: human LIF-His (human) (UniProt P15018); assay: competitive binding assay: excess inhibitor against LIF-His on yeast-displayed wild-type LIFR or gp130
human LIF-His (human) [5] = target: human LIF-His (human) (UniProt P15018); assay: multiple LIF binding assay: inhibitor bound to yeast-displayed LIF bridges soluble LIF-His (10 nM, 100 nM), anti-His detection
[6] = target: human leukemia inhibitory factor (LIF), soluble (human) (UniProt P15018); assay: yeast surface display, flow cytometry; binding score from fluorescence at 100 pM and 1 nM human LIF, normalized to wild-type
[7] = target: human leukemia inhibitory factor (LIF), soluble (human) (UniProt P15018); assay: yeast surface display, flow cytometry; binding score to human LIF calculated as for FIG. 3 B (10 pM and 100 pM LIF), normalized to wild-type
human LIF-His (human) [8] = target: human LIF-His (human) (UniProt P15018); assay: competition on yeast: displayed wild-type LIFR or gp130 saturated with LIF-His, inhibitor added in excess; anti-His signal normalized to LIF alone
human LIF-His (human) [9] = target: human LIF-His (human) (UniProt P15018); assay: bridging assay on yeast: inhibitor bound at saturation to yeast-displayed LIF, excess washed away, LIF-His added at 10 or 100 nM; anti-His fluorescence normalized to no LIF-His
[10] = target: LIF displayed on the surface of yeast (UniProt P15018); assay: yeast-displayed LIF loaded with inhibitor, excess washed away, soluble LIF-His as competitor for 24 hours; anti-Fc fluorescence normalized to a control without wash and without soluble LIF

Measured: binding

B1: … (receptor)
yeast-displayed receptor fragment: QKKGAPHDLKCVTNNLQVWNCSWKAPSGTGRGTDYEVCIENRSRSCYQLEKTSIKIPALSHGDYEITINSLHDFGSSTSKFTLNEQNVSLIPDTPEILNLSADFSTSTLYLKWNDRGSVFPHRSNVIWEIKVLRKESMELVKLVTHNTTLNGKDTLHHWSWASDMPLECAIHFVEIRCYIDNLHFSGLEEWSDWSPVKNISWIPDSQTKVFPQDKVVPVGSDITFCCVSQEKVLSALIGRTDCPLIHLDGENVAIKVRNVSASASSGTNVVFITEDDIFGTVIFAGYPPDTPQQLNCETHDLKEIICSWNPGRVTALVGPRATSYTLVESFSGKYVRLKRAEAPTNESYQLLFQMLPNQEIYNFTLNAHNPLGRSQSTILVNITEKVYPHTPTSFKVKDINSTAVKLSWHLPGNFAKINFLCEIEIKKSNSVQEQRNVTIKGVENSSYLVALDKLNPYTLYTFRIRCSTETFWKWSKWSNKKQHLTTEAS
binds: [1] | [2] | [2]; record 2 | human LIF-His (human) [3] | human LIF-His (human) [3]; record 2 | human LIF-His (human) [4] | human LIF-His (human) [4]; record 2 | human LIF-His (human) [5] | [6] | [6]; record 2 | [7] | [7]; record 2 | [7]; record 3 | [7]; record 4 | [7]; record 5 | [7]; record 6 | human LIF-His (human) [8] | human LIF-His (human) [8]; record 2 | human LIF-His (human) [9] | [10] | [10]; record 2
